Reference: US8318657B2, “Methods and compositions for preventing and/or treating pancreatitis” (Flinders Technologies Pty Ltd., priority 2005, dated 2012)
At least one compound was matched to its structure with a doubt left.

Assays:
Format in all cases: in vivo, Australian Brush-tailed possums (Trichosurus vulpecula)
[1] = system: basal pancreatic exocrine secretion; assay: Basal pancreatic exocrine secretion in anaesthetised possums; conditions: galanin 0.5 or galantide 1.5 nmol/kg bolus then 2 nmol/kg/h i.v., preliminary study
Experimental: The possums were anaesthetized as described above. The left femoral vein was cannulated with two cannulae (1.05 mm OD, 0.35 ID) for administration of anaesthetic drugs and normal saline. […] A midline laparotomy was then performed. With minimal handling of tissues, the duodenum with the sphincter of Oddi was placed on a platform and stabilised with pins. The pancreatic duct component of the sphincter of Oddi was identified with the aid of a dissecting microscope and opened with micro-scissors. It was then cannulated (1.5 mm OD, 0.9 mm ID) advanced 4-5 mm and ligated with 5-0 prolene suture. This cannula was left open to collect pancreatic juice. After an initial stabilization period of 15 minutes, the pancreatic juice was collected every 30 minutes for 3.5 hours.
(§1) The quantity of pancreatic exocrine secretion was estimated gravimetrically (basal secretion and stimulated secretion).

[2] = system: hyperstimulated pancreatic exocrine secretion; assay: Hyperstimulated (CCK/secretin) pancreatic exocrine secretion in anaesthetised possums; conditions: CCK/secretin 5 ug/kg of each/hour i.v., galanin 0.5 or galantide 1.5 nmol/kg bolus then 2 nmol/kg/h, decrease of elevated volume, preliminary study
Experimental: The experimental setup was similar to as described above. In the control group after an initial stabilization period of 15 minutes, the pancreatic juice was collected at half hourly intervals for one hour. This established the basal secretion rate. Then a mixture of cholecystokinin and secretin (CCK-SEC) was infused i.v at 5 μg (of each peptide)/kg/hr for the entire duration of the experiment.
The galanin or galantide infusion was continued for one and a half hour and then stopped. The CCK-SEC infusion was further continued for one hour. During the entire course of experiment, pancreatic juice was collected at half hourly intervals.
as §1

[3] = system: possum model of acute pancreatitis (AP); assay: Possum model of acute pancreatitis (pancreatic duct ligation + CCK/secretin) with galanin or galantide; conditions: for pancreatic vascular perfusion (PVP) / plasma amylase activity / plasma lipase activity: i.v. bolus (GL 0.5, GT 1.5 nmol/kg) then 2 nmol/kg/h continuous infusion, initiated 15 minutes prior to AP induction; for plasma amylase activity / plasma lipase activity: effect on AP-induced rise

`CC(C)C[C@H](NC(=O)CNC(=O)[C@H](CC(N)=O)NC(=O)[C@H](CCCCN)NC(=O)[C@H](CC(=O)O)NC(=O)[C@H](CO)NC(=O)[C@H](Cc1ccccc1)NC(=O)[C@H](CO)NC(=O)[C@H](CCCNC(=N)N)NC(=O)[C@H](Cc1c[nH]cn1)NC(=O)[C@H](CC(N)=O)NC(=O)CNC(=O)[C@@H](NC(=O)[C@H](C)NC(=O)[C@H](Cc1c[nH]cn1)NC(=O)[C@@H]1CCCN1C(=O)CNC(=O)[C@H](CC(C)C)NC(=O)[C@H](CC(C)C)NC(=O)[C@H](Cc1ccc(O)cc1)NC(=O)CNC(=O)[C@H](C)NC(=O)[C@H](CO)NC(=O)[C@H](CC(N)=O)NC(=O)[C@H](CC(C)C)NC(=O)[C@@H](NC(=O)[C@H](Cc1c[nH]c2ccccc12)NC(=O)CN)[C@@H](C)O)C(C)C)C(=O)N[C@H](C(=O)N[C@@H](CO)C(=O)O)[C@@H](C)O` [Galanin] was tested, and the “basal rate of pancreatic exocrine secretion (volume)” value [1] was “does not influence basal exocrine secretion (volume)”, the “hyperstimulated pancreatic exocrine secretion (volume of pancreatic juice)” value [2] was “but not” and the “pancreatic vascular perfusion (PVP)” value [3] was “depressed the PVP for the duration of the experiments”. For the same compound, the plasma amylase activity [3] was “did not alter the time-course of the pancreatitis-induced hyperamylasemia”, the plasma lipase activity [3] was “exacerbated the pancreatitis-induced hyperlipasemia” and the plasma amylase activity ([3]; listed as GL) was “unaffected”. The plasma lipase activity ([3]; listed as GL) was “increased”, the “pancreatic vascular perfusion (PVP)” value ([3]; listed as GL) was “sustained increase in PVP” and the pancreatic oedema ([3]; pancreas harvested 8 hours post-AP induction, H&E, point counting, treatment from 15 minutes prior to AP induction, decrease of AP-induced oedema) was “but not”.
